Primary screen of a compound library

Chains of the proteins cited; added tags and fusions are not shown. Residues count along the entry.
UniProt P9WPC5, whole entry: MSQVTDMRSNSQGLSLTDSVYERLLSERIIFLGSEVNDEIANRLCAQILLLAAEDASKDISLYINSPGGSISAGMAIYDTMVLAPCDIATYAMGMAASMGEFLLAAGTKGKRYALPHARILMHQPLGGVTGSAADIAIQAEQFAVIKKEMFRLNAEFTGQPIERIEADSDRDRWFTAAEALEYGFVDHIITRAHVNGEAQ
UniProt P9WPC3, whole entry partner: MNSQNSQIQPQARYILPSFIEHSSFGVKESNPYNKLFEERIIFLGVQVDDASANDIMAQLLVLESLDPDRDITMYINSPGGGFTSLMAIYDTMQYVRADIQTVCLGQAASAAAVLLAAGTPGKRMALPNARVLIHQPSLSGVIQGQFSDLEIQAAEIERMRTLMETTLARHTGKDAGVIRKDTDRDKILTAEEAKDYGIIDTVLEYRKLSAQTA
UniProt Q4DA54, 1-478: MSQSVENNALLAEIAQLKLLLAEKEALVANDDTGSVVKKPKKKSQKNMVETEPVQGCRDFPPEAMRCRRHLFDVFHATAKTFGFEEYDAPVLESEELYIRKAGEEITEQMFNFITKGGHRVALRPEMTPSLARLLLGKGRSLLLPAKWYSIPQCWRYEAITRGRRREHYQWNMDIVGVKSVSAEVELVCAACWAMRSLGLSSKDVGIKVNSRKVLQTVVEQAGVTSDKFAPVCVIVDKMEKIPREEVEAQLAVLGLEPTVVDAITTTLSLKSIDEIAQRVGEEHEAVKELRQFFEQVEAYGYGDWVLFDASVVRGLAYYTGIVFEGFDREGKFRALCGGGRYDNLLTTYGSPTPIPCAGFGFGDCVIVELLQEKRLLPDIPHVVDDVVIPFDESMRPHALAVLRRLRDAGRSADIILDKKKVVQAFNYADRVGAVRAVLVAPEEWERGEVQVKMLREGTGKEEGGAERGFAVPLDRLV
UniProt P9WNZ1, whole entry: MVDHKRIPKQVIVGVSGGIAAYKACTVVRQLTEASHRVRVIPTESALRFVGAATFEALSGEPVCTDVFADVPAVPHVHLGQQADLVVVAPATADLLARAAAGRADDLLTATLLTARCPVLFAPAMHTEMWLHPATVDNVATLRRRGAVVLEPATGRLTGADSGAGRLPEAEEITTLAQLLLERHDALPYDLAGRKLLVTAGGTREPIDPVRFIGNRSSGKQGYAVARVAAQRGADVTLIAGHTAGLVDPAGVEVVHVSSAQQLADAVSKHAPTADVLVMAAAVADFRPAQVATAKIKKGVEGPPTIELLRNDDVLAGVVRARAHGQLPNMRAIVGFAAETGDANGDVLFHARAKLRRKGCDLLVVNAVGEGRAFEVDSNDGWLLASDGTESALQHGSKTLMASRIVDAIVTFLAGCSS

From ChEMBL document CHEMBL3988442, “University of Dundee, Small-Polar-MMV Screening Library” (2021).

A: 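ClpP1P2, Mycobacterium tuberculosis (UniProt P9WPC5 and UniProt P9WPC3). Protease assay of ClpP1P2, read by the AMC dye that it sets free. Tested at 50 µM. Direction is inferred from only a few compounds that gave an IC50; most scored high, so higher reads as stronger inhibition. Most other retested compounds had strongly negative values. About 69,000 compounds were tested under these conditions; 0.015% (about 10) showed 50% or more at least once.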
B: 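Assay of Toxoplasma gondii numbers, read through their beta-galactosidase reporter with a colour substrate. Concentration: 10 µM. The record gives no direction; the compounds picked for IC50 retests had high values, so higher reads as fewer parasites. Of about 67,000 compounds tested this way, about 260 (0.38%) reached 50% or more in at least one test.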
C: 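Cell assay of Leishmania donovani living inside macrophages; the read-out is not stated. Compounds at 30 µM. The record gives no direction; compounds that gave an IC50 in retests scored well above the rest, so higher reads as stronger inhibition. Of about 69,000 compounds tested this way, about 1,000 (1.5%) reached 50% or more in at least one test.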
D: 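Histidine-tRNA ligase, Trypanosoma cruzi CL Brener (UniProt Q4DA54). Enzyme assay of histidyl-tRNA synthetase; the read-out is not stated. Compounds at 30 µM. The record gives no direction; compounds that gave an IC50 in retests scored well above the rest, so higher reads as stronger inhibition. Size under these conditions: about 69,000 compounds, about 31 of them at 50% or above in at least one test.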
E: 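Coenzyme A biosynthesis protein CoaBC, Mycobacterium tuberculosis (UniProt P9WNZ1). Enzyme assay of CoaBC with a phosphate dye (Biomol Green) read at 650 nm. Tested at 30 µM. Direction is inferred from only a few compounds that gave an IC50; most scored high, so higher reads as stronger inhibition. Most strong results did not repeat in a second test. Size under these conditions: about 67,000 compounds, about 40 of them at 50% or above in at least one test.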

Each number is a percent effect as filed.
The controls that fix the scale are not given in the record; negative values are as filed.
This is an unselected part of the compounds tested.
Two or more numbers in one place are separate tests of the same structure; such repeats can differ widely.

structure: CCc1ccc(C(=O)N2CCCN(Cc3csc(CC)n3)CC2)o1
A: -8.456
B: -12.36
C: 20.95
D: 7.229
E: 1.238

structure: O=C(O)C(F)(F)F.[H][C@]12CN(C(=O)c3cc(C)ccn3)C[C@@]1([H])OCCN(S(C)(=O)=O)C2
B: -1.701
C: 16.15 and -6.117

structure: CCN(CC)Cc1ccc(C(=O)NC2CCc3cc(Cl)ccc32)o1 (stereo unspecified)
A: 4.761
B: 2.163
C: -4.324
D: -2.597
E: 12.44

structure: CCC1CN(C(=O)c2csc3nc(-c4ccc(Cl)cc4)cn23)CCN1 (stereo unspecified)
A: -26.74
B: 16.07
C: 94.25
D: 7.212
E: 1.908

structure: COCCN1C(=O)CO[C@H]2CN(Cc3c[nH]nc3-c3ccccc3)C[C@@H]21
A: 1.403
D: -0.5405
E: -6.111

structure: Cc1[nH]ncc1CCCNC(=O)N1CCC(C(N)=O)CC1
A: 2.689
B: 4.045
C: 7.84
D: 10.31
E: 5.495

structure: COCCN1C[C@@H]2CN(c3cc(OC)ncn3)CCC[C@]2(C(=O)O)C1
A: 10.6
D: 0
E: -4

structure: Cc1ccc(N2CCN(Cc3ccccc3)C3(CCNCC3)C2=O)cn1
A: -1.252
D: 2.532

structure: Cc1ccc2c(c1)C(N1CCOCC1)CC21CCNCC1 (stereo unspecified)
A: -5.914
B: 7.684
C: 55.92
D: 0
E: 3.202

structure: CSCc1cccc(S(=O)(=O)N2CCCC2)c1
A: -6.731
B: -49.9
C: 4.809
D: 6.957
E: -1.848

structure: CN1CCC(c2cccc(NCc3ccncc3)n2)CC1
A: -21.81
B: -4.477
C: 38.02
D: 2.682
E: -1.214

structure: CN(Cc1ccc(-n2cccn2)cc1)C(=O)CCC(F)(F)F
A: -7.286
B: 14.96
C: 4.183
D: 0.9901
E: -1.574

structure: O=C(O)CCC(=O)Nc1nn(Cc2ccccc2Cl)cc1Cl
A: 0.287
B: 6.922
C: -4.313
D: 3.097
E: -2.336

structure: Cc1ccc(-c2nnc(C(C)NCCn3cc(C)cn3)o2)cc1 (stereo unspecified)
A: -11.05
B: 2.572
C: 8.819
D: 0.5405
E: 6.838

Repeated from the top, 2 entries:

{"structure": "CCc1ccc(C(=O)N2CCCN(Cc3csc(CC)n3)CC2)o1", "A": -8.456, "B": -12.36, "C": 20.95, "D": 7.229, "E": 1.238}
{"structure": "O=C(O)C(F)(F)F.[H][C@]12CN(C(=O)c3cc(C)ccn3)C[C@@]1([H])OCCN(S(C)(=O)=O)C2", "B": -1.701, "C": "16.15 and -6.117"}